Measured values reported in article PMC9085225.
Read-outs that look alike come from different tables or passages of the source. Results are given in words; binding and its absence hold for the method and conditions named. Binding seen in cells or lysates may run through a third protein. Some entries that bind do so weakly or less than the wild type.

Protein sequences, listed by entry. Tags and fused reporters are not part of them.
UniProt O88907: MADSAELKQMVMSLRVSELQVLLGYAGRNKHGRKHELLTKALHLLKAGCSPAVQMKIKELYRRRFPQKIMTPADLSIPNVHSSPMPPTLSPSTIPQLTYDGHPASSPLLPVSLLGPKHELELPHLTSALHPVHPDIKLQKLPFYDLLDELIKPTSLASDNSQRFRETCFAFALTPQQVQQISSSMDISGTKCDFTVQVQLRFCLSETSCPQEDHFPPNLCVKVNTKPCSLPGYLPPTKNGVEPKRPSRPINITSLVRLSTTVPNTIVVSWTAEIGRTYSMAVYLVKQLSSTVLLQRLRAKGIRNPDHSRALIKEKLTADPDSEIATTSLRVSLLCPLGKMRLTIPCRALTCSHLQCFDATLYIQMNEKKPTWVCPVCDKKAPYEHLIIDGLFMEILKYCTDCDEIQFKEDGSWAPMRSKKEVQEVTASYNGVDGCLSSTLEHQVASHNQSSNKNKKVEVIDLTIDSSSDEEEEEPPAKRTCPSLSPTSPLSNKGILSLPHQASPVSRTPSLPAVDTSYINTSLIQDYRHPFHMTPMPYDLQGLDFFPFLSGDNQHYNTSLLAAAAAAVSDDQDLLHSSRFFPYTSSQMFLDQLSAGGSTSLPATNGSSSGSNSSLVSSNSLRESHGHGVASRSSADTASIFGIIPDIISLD

Columns and labels:
[1] = molecular target: Ubiquitin Conjugating Enzyme E2I (UBE2I) (mouse (endogenous in TC-1)) (UniProt P63280); assay: co-IP; cells lysed in RIPA lysis buffer; supernatant incubated with antibody-precoated agarose beads; Western blotting; IgG antibody as control
[2] = molecular target: Ubiquitin Conjugating Enzyme E2I (UBE2I) (mouse (endogenous in TC-1)) (UniProt P63280); assay: as above; remark: listed apart in the source

| Molecule | binding [1] | binding [2] |
| --- | --- | --- |
| protein inhibitor of activated signal transducer and activators of transcription 1 (PIAS1) (from UniProt O88907 1-651) | binds |  |
| nuclear receptor interacting protein 1 (NRIP1) (protein, UniProt Q8CBD1 1-1161) MTHGEELGSDVHQDSIVLTYLEGLLMHQAAGGSGTAINKKSAGHKEEDQNFNLSGSAFPSCQSNGPTVSTQTYQGSGMLHLKKARLLQSSEDWNAAKRKRLSDSIVNLNVKKEALLAGMVDSVPKGKQDSTLLASLLQSFSSRLQTVALSQQIRQSLKEQGYALSHESLKVEKDLRCYGVASSHLKTLLKKSKTKDQKSGPTLPDVTPNLIRDSFVESSHPAVGQSGTKVMSEPLSCAARLQAVASMVEKRASPAASPKPSVACSQLALLLSSEAHLQQYSREHALKTQNAHQVASERLAAMARLQENGQKDVGSSQLSKGVSGHLNGQARALPASKLVANKNNAATFQSPMGVVPSSPKNTSYKNSLERNNLKQAANNSLLLHLLKSQTIPTPMNGHSQNERASSFESSTPTTIDEYSDNNPSFTDDSSGDESSYSNCVPIDLSCKHRIEKPEAERPVSLENLTQSLLNTWDPKIPGVDIKEDQDTSTNSKLNSHQKVTLLQLLLGHKSEETVERNASPQDIHSDGTKFSPQNYTRTSVIESPSTNRTTPVSTPPLYTASQAESPINLSQHSLVIKWNSPPYACSTPASKLTNTAPSHLMDLTKGKESQAEKPAPSEGAQNSATFSASKLLQNLAQCGLQSSGPGEEQRPCKQLLSGNPDKPLGLIDRLNSPLLSNKTNAAEESKAFSSQPAGPEPGLPGCEIENLLERRTVLQLLLGNSSKGKNEKKEKTPARDEAPQEHSERAANEQILMVKIKSEPCDDFQTHNTNLPLNHDAKSAPFLGVTPAIHRSTAALPVSEDFKSEPASPQDFSFSKNGLLSRLLRQNQESYPADEQDKSHRNSELPTLESKNICMVPKKRKLYTEPLENPFKKMKNTAVDTANHHSGPEVLYGSLLHQEELKFSRNELDYKYPAGHSSASDGDHRSWARESKSFNVLKQLLLSENCVRDLSPHRSDSVPDTKKKGHKNNAPGSKPEFGISSLNGLMYSSPQPGSCVTDHRTFSYPGMVKTPLSPPFPEHLGCVGSRPEPGLLNGCSVPGEKGPIKWVIADMDKNEYEKDSPRLTKTNPILYYMLQKGGGNSVTTQETQDKDIWREPASAESLSQVTVKEELLPAAETKASFFNLRSPYNSHMGNNASRPHSTNGEVYGLLGNALTIKKESE |  | binds |
